# Measurements reported in the supplement of paper PMC10032668.
# Chains of the proteins cited; added tags and fusions are not shown.
# GLUL, P15104, UniProt P15104, whole entry: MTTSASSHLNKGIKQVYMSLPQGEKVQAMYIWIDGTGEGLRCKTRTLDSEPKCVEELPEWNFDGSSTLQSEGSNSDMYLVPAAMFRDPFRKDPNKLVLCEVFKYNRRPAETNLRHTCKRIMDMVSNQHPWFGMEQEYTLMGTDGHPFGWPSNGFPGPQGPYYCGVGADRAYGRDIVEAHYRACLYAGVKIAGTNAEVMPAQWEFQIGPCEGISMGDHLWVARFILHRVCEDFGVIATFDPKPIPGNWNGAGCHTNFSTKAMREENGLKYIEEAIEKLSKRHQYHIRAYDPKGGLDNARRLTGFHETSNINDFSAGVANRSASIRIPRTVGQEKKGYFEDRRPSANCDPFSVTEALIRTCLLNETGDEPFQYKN
# MCM7, P33993, UniProt P33993, whole entry: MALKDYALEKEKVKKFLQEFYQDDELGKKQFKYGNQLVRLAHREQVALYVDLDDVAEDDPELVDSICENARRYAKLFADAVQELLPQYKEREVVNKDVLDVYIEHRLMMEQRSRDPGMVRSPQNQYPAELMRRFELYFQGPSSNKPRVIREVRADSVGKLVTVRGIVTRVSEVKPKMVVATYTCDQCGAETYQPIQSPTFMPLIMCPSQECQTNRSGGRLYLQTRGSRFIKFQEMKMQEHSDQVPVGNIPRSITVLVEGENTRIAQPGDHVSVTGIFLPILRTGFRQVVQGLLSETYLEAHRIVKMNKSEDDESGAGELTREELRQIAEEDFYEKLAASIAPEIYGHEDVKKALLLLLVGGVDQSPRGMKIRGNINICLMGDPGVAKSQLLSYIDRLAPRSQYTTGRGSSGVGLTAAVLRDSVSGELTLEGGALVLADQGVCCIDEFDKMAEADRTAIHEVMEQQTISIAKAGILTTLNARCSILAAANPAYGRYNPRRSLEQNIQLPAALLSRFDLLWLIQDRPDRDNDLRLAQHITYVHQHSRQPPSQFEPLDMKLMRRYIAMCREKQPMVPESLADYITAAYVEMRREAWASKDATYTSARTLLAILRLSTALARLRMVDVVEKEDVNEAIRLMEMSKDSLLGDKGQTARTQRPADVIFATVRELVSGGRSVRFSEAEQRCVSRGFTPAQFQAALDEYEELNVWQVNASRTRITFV
# PPP2R5D, Q14738, UniProt Q14738, whole entry: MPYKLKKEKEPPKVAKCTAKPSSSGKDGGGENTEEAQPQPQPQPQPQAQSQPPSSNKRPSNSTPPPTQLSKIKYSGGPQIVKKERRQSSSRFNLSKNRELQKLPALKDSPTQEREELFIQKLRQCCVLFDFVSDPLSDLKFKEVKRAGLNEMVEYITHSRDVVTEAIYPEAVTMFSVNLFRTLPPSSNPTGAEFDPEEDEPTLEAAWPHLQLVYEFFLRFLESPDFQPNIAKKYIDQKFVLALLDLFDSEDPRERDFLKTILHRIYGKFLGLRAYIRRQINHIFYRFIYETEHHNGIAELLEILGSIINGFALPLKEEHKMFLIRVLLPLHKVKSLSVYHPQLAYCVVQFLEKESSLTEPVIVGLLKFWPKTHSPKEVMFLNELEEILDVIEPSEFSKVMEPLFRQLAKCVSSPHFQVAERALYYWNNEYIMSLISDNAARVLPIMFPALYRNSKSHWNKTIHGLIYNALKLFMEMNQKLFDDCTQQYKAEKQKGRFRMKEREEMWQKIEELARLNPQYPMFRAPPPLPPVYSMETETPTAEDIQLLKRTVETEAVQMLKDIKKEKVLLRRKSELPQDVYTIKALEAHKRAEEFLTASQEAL
# SEC61A1, P61619, UniProt P61619, whole entry: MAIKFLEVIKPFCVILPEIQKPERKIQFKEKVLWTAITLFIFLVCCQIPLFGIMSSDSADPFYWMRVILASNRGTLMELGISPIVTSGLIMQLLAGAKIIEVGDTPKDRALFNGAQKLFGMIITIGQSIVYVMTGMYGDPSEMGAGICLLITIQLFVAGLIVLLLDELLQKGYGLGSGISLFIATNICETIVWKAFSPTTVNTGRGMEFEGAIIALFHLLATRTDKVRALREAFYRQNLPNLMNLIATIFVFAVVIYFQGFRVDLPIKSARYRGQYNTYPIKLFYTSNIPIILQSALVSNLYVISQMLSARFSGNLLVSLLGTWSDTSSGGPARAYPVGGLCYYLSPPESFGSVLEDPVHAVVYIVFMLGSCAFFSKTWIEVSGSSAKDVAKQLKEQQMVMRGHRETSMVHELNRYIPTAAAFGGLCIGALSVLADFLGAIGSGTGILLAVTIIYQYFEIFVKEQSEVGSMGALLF
# The other results are listed elsewhere or left out. The list holds hits alone, and they repeat only in part.
# Assays:
# Assay in all cases: PRISMA enrichment of interactor (LFQ) in peptide spot vs all other peptide spots (log2 fold change); higher = stronger / more specific binding of the interactor to the peptide
# ANKRD28, O15084 = target: ANKRD28, O15084
# Procedure: (§1)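 PRISMA: 15-aa overlapping tiles (offset 8 aa) of 60 microproteins, plus SOS1/GLUT1 control peptides, were spot-synthesized on cellulose membranes in triplicate. Membranes were incubated with benzonase-treated HEK293T lysate, and bound proteins were identified by LC-MS/MS with LFQ. Enrichment is the log2 fold change of each protein in one spot versus all other spots. Only interactors passing the significance cutoff are listed.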
# CALU, O43852 = target: CALU, O43852
# Procedure: as §1
# DAZAP1, Q96EP5 = target: DAZAP1, Q96EP5
# Procedure: as §1
# DNAJA1, P31689 = target: DNAJA1, P31689
# Procedure: as §1
# EDF1, O60869 = target: EDF1, O60869
# Procedure: as §1
# EHD1, Q9H4M9 = target: EHD1, Q9H4M9
# Procedure: as §1
# EIF4G2, P78344 = target: EIF4G2, P78344
# Procedure: as §1
# FTSJ3, Q8IY81 = target: FTSJ3, Q8IY81
# Procedure: as §1
# GLUL, P15104 = target: GLUL, P15104
# Procedure: as §1
# HP1BP3, Q5SSJ5 = target: HP1BP3, Q5SSJ5
# Procedure: as §1
# IPO4, Q8TEX9 = target: IPO4, Q8TEX9
# Procedure: as §1
# IRS4, O14654 = target: IRS4, O14654
# Procedure: as §1
# LTV1, Q96GA3 = target: LTV1, Q96GA3
# Procedure: as §1
# MCM7, P33993 = target: MCM7, P33993
# Procedure: as §1
# MRPS2, Q9Y399 = target: MRPS2, Q9Y399
# Procedure: as §1
# MRPS23, Q9Y3D9 = target: MRPS23, Q9Y3D9
# Procedure: as §1
# MRPS6, P82932 = target: MRPS6, P82932
# Procedure: as §1
# NOC4L, Q9BVI4 = target: NOC4L, Q9BVI4
# Procedure: as §1
# NOP14, P78316 = target: NOP14, P78316
# Procedure: as §1
# PDCD11, Q14690 = target: PDCD11, Q14690
# Procedure: as §1
# PLEC, Q15149 = target: PLEC, Q15149
# Procedure: as §1
# PPP2R5D, Q14738 = target: PPP2R5D, Q14738
# Procedure: as §1
# PRPF40A, O75400 = target: PRPF40A, O75400
# Procedure: as §1
# PSPC1, Q8WXF1 = target: PSPC1, Q8WXF1
# Procedure: as §1
# RAB14, P61106 = target: RAB14, P61106
# Procedure: as §1
# RARS, P54136 = target: RARS, P54136
# Procedure: as §1
# RBFOX2, O43251 = target: RBFOX2, O43251
# Procedure: as §1
# RBM10 = target: RBM10
# Procedure: as §1
# SEC61A1, P61619 = target: SEC61A1, P61619
# Procedure: as §1
# SF3A3, Q12874 = target: SF3A3, Q12874
# Procedure: as §1
# TRIM28, Q13263 = target: TRIM28, Q13263
# Procedure: as §1
# USO1, O60763 = target: USO1, O60763
# Procedure: as §1
# ZNF483, Q8TF39 = target: ZNF483, Q8TF39
# Procedure: as §1
binder,measurement,setting,value
MRFLHSECVLMRYDS [RP11-12K22.1],PRISMA enrichment of interactor (log2),"ANKRD28, O15084",4.58
same,PRISMA enrichment of interactor (log2),"CALU, O43852",5.59
same,PRISMA enrichment of interactor (log2),"DAZAP1, Q96EP5",4.74
same,PRISMA enrichment of interactor (log2),"DNAJA1, P31689",6.1
same,PRISMA enrichment of interactor (log2),"EDF1, O60869",6.36
same,PRISMA enrichment of interactor (log2),"EHD1, Q9H4M9",4.99
same,PRISMA enrichment of interactor (log2),"EIF4G2, P78344",7.48
same,PRISMA enrichment of interactor (log2),"FTSJ3, Q8IY81",4.88
same,PRISMA enrichment of interactor (log2),"GLUL, P15104",4.78
same,PRISMA enrichment of interactor (log2),"HP1BP3, Q5SSJ5",4.79
same,PRISMA enrichment of interactor (log2),"IPO4, Q8TEX9",9.57
same,PRISMA enrichment of interactor (log2),"IRS4, O14654",4.5
same,PRISMA enrichment of interactor (log2),"LTV1, Q96GA3",5.13
same,PRISMA enrichment of interactor (log2),"MCM7, P33993",4.45
same,PRISMA enrichment of interactor (log2),"MRPS2, Q9Y399",5.43
same,PRISMA enrichment of interactor (log2),"MRPS23, Q9Y3D9",4.55
same,PRISMA enrichment of interactor (log2),"MRPS6, P82932",5.23
same,PRISMA enrichment of interactor (log2),"NOC4L, Q9BVI4",5.39
same,PRISMA enrichment of interactor (log2),"NOP14, P78316",6.95
same,PRISMA enrichment of interactor (log2),"PDCD11, Q14690",5.66
same,PRISMA enrichment of interactor (log2),"PLEC, Q15149",4.1
same,PRISMA enrichment of interactor (log2),"PPP2R5D, Q14738",5.89
same,PRISMA enrichment of interactor (log2),"PRPF40A, O75400",4.85
same,PRISMA enrichment of interactor (log2),"PSPC1, Q8WXF1",4.95
same,PRISMA enrichment of interactor (log2),"RAB14, P61106",6.97
same,PRISMA enrichment of interactor (log2),"RARS, P54136",5.93
same,PRISMA enrichment of interactor (log2),"RBFOX2, O43251",4
same,PRISMA enrichment of interactor (log2),RBM10,5.53
same,PRISMA enrichment of interactor (log2),"SEC61A1, P61619",5.55
same,PRISMA enrichment of interactor (log2),"SF3A3, Q12874",4.06
same,PRISMA enrichment of interactor (log2),"TRIM28, Q13263",4.56
same,PRISMA enrichment of interactor (log2),"USO1, O60763",4.96
same,PRISMA enrichment of interactor (log2),"ZNF483, Q8TF39",7.53

# A different layout for some results above:
binder	measurement	setting	value
MRFLHSECVLMRYDS [RP11-12K22.1]	PRISMA enrichment of interactor (log2)	ANKRD28, O15084	4.58
same	PRISMA enrichment of interactor (log2)	CALU, O43852	5.59
same	PRISMA enrichment of interactor (log2)	DAZAP1, Q96EP5	4.74
same	PRISMA enrichment of interactor (log2)	DNAJA1, P31689	6.1
same	PRISMA enrichment of interactor (log2)	EDF1, O60869	6.36
same	PRISMA enrichment of interactor (log2)	EHD1, Q9H4M9	4.99
same	PRISMA enrichment of interactor (log2)	EIF4G2, P78344	7.48
same	PRISMA enrichment of interactor (log2)	FTSJ3, Q8IY81	4.88
